Source: US20180044422A1, “TREATING SOLID TUMOR BY TARGETING DECTIN-1 SIGNALING” (New York University, priority 2016, published 2018)
No constants are given. Whether binding was seen depends on the method and setting. For some of these results: Binding seen in cells or lysates may run through a third protein. Some results given as binding are weak or reduced against the parent protein; the word gives no strength. Sequences can lack the tags named with a protein.

By UniProt entry, the sequences of proteins in these tests, tags left out. Where a name states a change or a piece, a line headed by the entry shows the natural chain unless it says otherwise.
UniProt O08573: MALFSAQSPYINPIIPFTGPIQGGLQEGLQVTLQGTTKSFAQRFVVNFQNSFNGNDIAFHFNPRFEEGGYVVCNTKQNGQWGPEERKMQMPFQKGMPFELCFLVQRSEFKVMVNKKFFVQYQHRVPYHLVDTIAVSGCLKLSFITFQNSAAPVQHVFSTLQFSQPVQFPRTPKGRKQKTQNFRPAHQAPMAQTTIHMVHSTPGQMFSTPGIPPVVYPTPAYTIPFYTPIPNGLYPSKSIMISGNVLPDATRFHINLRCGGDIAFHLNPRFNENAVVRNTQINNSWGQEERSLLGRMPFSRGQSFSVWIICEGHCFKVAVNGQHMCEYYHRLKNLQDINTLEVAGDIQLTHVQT

Columns and labels:
[1] = target: recombinant mouse Galectin-9 (R&D Systems) (mouse) (UniProt O08573); experiment: protein G magnetic beads loaded with Dectin-1 IgG Fc, recombinant Galectin-9, fluorescent anti-Galectin-9, flow cytometry
[2] = target: recombinant mouse Galectin-9 (R&D Systems) (mouse) (UniProt O08573); experiment: ELISA, plate coated with Galectin-9, increasing doses of murine Dectin-1 IgG Fc, detection with anti-IgG-HRP [cont.) G]
[3] = target: Galectin-9 (Lgals9), endogenous, from KPC tumor cell lysate or KC pancreatic tissue extract (mouse) (UniProt O08573); experiment: precipitation from pancreatic tissue extract of 6 month-old KC mice, Western blot for Galectin-9
[4] = target: Galectin-9 (Lgals9), endogenous, from KPC tumor cell lysate or KC pancreatic tissue extract (mouse) (UniProt O08573); experiment: Precipitation from the pancreatic tissue extract of 6 month-old KC mice with Dectin-1 IgG Fc on protein G beads, Western blot for Galectin-9 [cont.) J]
[5] = target: recombinant mouse Galectin-9 (R&D Systems) (mouse) (UniProt O08573); experiment: pull-down on protein G beads with Galectin-9 pre-incubated with 100 mM lactose, SDS-PAGE, Coomassie Blue
[6] = target: recombinant mouse Galectin-9 (R&D Systems) (mouse) (UniProt O08573); experiment: Pull-down of recombinant mouse Galectin-9 with Dectin-1 IgG Fc on protein G beads, with or without 100 mM lactose; SDS-PAGE, Coomassie Blue [cont.) K]
[7] = target: recombinant mouse Galectin-9 (R&D Systems) (mouse) (UniProt O08573); experiment: ELISA, Galectin-9-coated plate, increasing doses of Dectin-1 IgG Fc, anti-IgG-HRP
[8] = target: recombinant mouse Galectin-9 (R&D Systems) (mouse) (UniProt O08573); experiment: ELISA, plates coated with Gal-9, Gal-3 or Gal-4 in parallel, Dectin-1 IgG Fc at 2.5 µg/ml, detection with anti-IgG-HRP. The sheet draws one bar per galectin and does not name the Fc protein [cont.) I]
[9] = target: recombinant mouse Galectin-9 (R&D Systems) (mouse) (UniProt O08573); experiment: Pull-down of recombinant mouse Galectin-9 with PNGase F treated Dectin-1 IgG Fc on protein G beads; SDS-PAGE, Coomassie Blue [cont.) K]
[10] = target: recombinant mouse Galectin-9 (R&D Systems) (mouse) (UniProt O08573); experiment: pull-down on protein G beads, SDS-PAGE, Coomassie Blue

Measured: binding

B1: human IgG Fc-conjugated Dectin-1 fusion protein (murine Dectin-1 IgG Fc; fc-mdec1a, InvivoGen) (Fc fusion, mouse, UniProt Q6QLQ4 69-244, looked up, not shown: a dimerising Fc or GST)
chain: EYGHNSGRNPEEKDNFLSRNKENHKPTESSLDEKVAPSKASQTTGGFSQPCLPNWIMHGKSCYLFSFSGNSWYGSKRHCSQLGAHLLKIDNSKEFEFIESQTSSHRINAFWIGLSRNQSEGPWFWEDGSAFFPNSFQVRNTAPQESLLHNCVWIHGSEVYNQICNTSSYSICEKEL
not listed: [9] | [10]
binds: all other assays above

B2: Dectin-1 IgG Fc treated with PNGase F (Fc fusion, mouse, UniProt Q6QLQ4 69-244, looked up, not shown: a dimerising Fc or GST)
chain: EYGHNSGRNPEEKDNFLSRNKENHKPTESSLDEKVAPSKASQTTGGFSQPCLPNWIMHGKSCYLFSFSGNSWYGSKRHCSQLGAHLLKIDNSKEFEFIESQTSSHRINAFWIGLSRNQSEGPWFWEDGSAFFPNSFQVRNTAPQESLLHNCVWIHGSEVYNQICNTSSYSICEKEL
modifications: N-linked glycans cleaved with PNGase F (non-denaturing protocol, 37 C, 24 hr)
binds: [9] | [10]
